Data as given in patent US20130281413A1, “Salicylate Conjugates Useful For Treating Metabolic Disorders” (Genmedica Therapeutics SL, priority 2008, published 2013).
For at least one compound, name, drawing or mass did not settle the structure.

System: animal models of diabetes
Experiment: Summary of effects in different animal models of diabetes
Type: in vivo

CC(=O)N[C@@H](CSC(=O)c1cc(-c2ccc(F)cc2F)ccc1O)C(=O)O [Example 13, (R)-2-acetamido-3-(2′,4′-difluoro-4-hydroxybiphenylcarbonylthio)propanoic acid]
hypolipidemic, anti-diabetic and antioxidant effects: strong hypolipidemic and anti-diabetic effects as well as antioxidant properties
